Data taken from ChEMBL document CHEMBL3988442, “University of Dundee, Small-Polar-MMV Screening Library” (2021).

Sequences of proteins named here, by UniProt entry; tags and fusion partners are left off. Residues count along the entry.
UniProt P9WFT3, whole entry: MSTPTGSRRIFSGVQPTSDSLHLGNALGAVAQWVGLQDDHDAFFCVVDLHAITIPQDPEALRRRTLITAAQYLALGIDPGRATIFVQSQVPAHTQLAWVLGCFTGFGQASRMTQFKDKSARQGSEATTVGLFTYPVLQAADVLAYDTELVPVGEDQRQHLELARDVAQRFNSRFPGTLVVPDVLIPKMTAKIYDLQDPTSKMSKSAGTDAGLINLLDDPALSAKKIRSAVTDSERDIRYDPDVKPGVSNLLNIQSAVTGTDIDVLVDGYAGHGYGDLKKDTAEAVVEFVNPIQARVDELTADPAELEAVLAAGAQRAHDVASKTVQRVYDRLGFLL
UniProt P9WPC5, whole entry: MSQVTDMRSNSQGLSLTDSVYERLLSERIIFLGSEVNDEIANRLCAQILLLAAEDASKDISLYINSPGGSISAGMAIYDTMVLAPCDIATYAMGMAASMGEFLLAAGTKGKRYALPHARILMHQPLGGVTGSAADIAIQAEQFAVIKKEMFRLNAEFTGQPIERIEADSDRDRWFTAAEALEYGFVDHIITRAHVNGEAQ
UniProt P9WPC3, whole entry partner: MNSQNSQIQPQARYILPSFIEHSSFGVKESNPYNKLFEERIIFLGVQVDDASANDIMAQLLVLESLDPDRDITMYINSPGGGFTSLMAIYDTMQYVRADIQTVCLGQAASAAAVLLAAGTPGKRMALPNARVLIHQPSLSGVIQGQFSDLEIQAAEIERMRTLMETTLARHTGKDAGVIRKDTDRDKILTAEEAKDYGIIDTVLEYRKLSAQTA
UniProt I6X8D2, whole entry: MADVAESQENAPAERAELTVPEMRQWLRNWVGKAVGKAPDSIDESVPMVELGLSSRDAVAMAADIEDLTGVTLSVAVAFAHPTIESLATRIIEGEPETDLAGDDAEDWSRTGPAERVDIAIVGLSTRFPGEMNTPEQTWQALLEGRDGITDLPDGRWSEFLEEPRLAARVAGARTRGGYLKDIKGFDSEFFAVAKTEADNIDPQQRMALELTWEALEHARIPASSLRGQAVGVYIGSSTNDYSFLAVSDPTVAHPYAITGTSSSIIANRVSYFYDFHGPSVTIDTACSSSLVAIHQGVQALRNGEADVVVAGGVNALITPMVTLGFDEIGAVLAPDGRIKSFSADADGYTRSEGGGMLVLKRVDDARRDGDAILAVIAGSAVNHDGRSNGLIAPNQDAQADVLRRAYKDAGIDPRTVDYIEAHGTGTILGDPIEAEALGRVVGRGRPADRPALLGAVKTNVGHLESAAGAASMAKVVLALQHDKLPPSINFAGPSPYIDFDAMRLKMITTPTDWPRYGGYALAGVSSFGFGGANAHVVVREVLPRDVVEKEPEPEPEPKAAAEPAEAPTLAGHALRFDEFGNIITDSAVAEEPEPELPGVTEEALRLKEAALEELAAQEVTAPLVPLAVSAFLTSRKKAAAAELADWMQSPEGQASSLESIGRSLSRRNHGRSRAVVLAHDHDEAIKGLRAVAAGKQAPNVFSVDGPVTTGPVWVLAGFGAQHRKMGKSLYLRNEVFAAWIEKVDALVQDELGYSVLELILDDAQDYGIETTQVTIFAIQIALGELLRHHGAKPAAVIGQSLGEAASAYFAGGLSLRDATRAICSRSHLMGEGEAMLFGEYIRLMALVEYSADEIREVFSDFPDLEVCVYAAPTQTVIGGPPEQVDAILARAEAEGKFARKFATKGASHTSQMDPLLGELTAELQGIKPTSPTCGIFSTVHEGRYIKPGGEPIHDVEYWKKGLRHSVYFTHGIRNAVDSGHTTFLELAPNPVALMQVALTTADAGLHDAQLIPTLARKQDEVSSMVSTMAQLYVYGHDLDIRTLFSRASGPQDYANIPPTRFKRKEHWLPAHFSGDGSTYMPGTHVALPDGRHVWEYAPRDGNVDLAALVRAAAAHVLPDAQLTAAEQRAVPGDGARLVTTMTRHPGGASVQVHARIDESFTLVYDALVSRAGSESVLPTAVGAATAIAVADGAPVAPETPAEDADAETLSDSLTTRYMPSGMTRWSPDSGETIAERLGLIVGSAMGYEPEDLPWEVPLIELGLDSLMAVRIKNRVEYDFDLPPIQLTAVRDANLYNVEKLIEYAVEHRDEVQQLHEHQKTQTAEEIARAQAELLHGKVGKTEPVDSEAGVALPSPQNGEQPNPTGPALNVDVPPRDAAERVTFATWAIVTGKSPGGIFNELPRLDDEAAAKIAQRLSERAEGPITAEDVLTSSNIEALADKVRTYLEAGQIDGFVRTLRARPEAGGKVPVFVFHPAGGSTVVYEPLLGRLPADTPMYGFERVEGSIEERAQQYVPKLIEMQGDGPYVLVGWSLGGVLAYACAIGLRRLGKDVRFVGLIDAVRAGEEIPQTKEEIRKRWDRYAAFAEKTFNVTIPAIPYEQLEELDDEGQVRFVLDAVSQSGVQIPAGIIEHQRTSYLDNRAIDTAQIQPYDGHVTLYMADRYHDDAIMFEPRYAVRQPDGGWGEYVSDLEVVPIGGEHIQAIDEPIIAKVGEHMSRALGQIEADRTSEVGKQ
UniProt Q8IDJ8, 1-583: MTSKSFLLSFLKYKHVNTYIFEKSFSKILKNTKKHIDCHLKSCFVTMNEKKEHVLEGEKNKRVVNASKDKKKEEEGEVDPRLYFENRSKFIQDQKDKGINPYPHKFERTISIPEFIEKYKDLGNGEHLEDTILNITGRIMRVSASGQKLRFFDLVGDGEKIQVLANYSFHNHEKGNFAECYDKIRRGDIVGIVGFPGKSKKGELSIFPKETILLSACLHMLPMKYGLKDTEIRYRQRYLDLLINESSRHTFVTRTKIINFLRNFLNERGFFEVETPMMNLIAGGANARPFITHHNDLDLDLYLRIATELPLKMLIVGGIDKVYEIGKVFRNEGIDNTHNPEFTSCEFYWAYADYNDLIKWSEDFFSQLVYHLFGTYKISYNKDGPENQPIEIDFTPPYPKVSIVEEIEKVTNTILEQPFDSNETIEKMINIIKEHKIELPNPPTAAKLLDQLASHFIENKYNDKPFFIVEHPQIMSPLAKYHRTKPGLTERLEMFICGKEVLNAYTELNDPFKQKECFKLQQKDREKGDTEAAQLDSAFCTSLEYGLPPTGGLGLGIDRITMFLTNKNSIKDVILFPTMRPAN

MtTrpRS: 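Enzyme assay of tryptophanyl-tRNA synthetase; the read-out is not stated. Target: Tryptophan-tRNA ligase, Mycobacterium tuberculosis (UniProt P9WFT3). Concentration: 10 µM. Direction is not recorded; retested compounds ran higher, which suggests that high means inhibition. About 65,000 compounds were tested under these conditions; 0.098% (about 64) showed 50% or more at least once.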
ClpP1P2: 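Protease assay of ClpP1P2, read by the AMC dye that it sets free. Target: ClpP1P2, Mycobacterium tuberculosis (UniProt P9WPC5 and UniProt P9WPC3). Concentration: 50 µM. Direction is inferred from only a few compounds that gave an IC50; most scored high, so higher reads as stronger inhibition. Most other retested compounds had strongly negative values. About 69,000 compounds were tested under these conditions; 0.015% (about 10) showed 50% or more at least once.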
Pks13 thioesterase: 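Enzyme assay of the thioesterase domain of polyketide synthase 13; the read-out is not stated. Target: Polyketide synthase Pks13, Mycobacterium tuberculosis (UniProt I6X8D2). Concentration: 30 µM. The record gives no direction; the compounds picked for IC50 retests had high values, so higher reads as stronger inhibition. Size under these conditions: about 67,000 compounds, about 300 of them at 50% or above in at least one test.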
PfKRS1: 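Lysine-tRNA ligase, Plasmodium falciparum 3D7 (UniProt Q8IDJ8). Enzyme assay of the cytosolic lysyl-tRNA synthetase in 384-well plates, read by luminescence. Tested at 30 µM. Direction is inferred from only a few compounds that gave an IC50; most scored high, so higher reads as stronger inhibition. Of about 69,000 compounds tested this way, about 49 (0.071%) reached 50% or more in at least one test.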

The filed quantity is “Percent Effect” (%). The controls that fix the scale are not given in the record; negative values are as filed. The compounds are a random part of those screened. A dash means the value is not listed here; it may have been measured.

| # | compound | MtTrpRS | ClpP1P2 | Pks13 thioesterase | PfKRS1 |
|---|---|---|---|---|---|
| 1 | `Cc1ccc(CNC(=O)c2nn(C)c3c2CS(=O)(=O)CC3)o1` | -1.425 | -6.543 | -18.97 | 2.051 |
| 2 | `c1ccc(-c2nnc([C@H]3CCN(C4CCC4)C3)o2)cc1` | -1.442 | -11.05 | 1.342 | -0.7314 |
| 3 | `O=C(c1ccc[nH]1)N1C[C@H](OCc2ccccn2)[C@H]2COC[C@H]21` | -7.713 | -11.75 | -3.938 | -1.366 |
| 4 | `CC(=O)N1CCC(NC[C@H]2Cn3c(-c4ccccc4)cnc3CO2)CC1` | -2.959 | 1.943 | - | 3.43 |
| 5 | `CCOc1ccc(NC(=O)NCc2cccnc2OCC)cc1` | -4.496 | -3.895 | -8.668 | -0.4979 |
| 6 | `CC(NC(=O)Nc1nncs1)C(=O)NC1CCCC1` (configuration not stated) | 0.641 | 2.54 | -6.864 | 7.811 |
| 7 | `CCC1C(=O)NCCN1c1ccnc(C(C)(C)C)n1` (configuration not stated) | 2.991 | -5.375 | -12.45 | 5.284 |
| 8 | `COCCOCC(=O)Nc1ccc(C)cc1Cl` | 2.201 | -3.037 | -4.478 | 4.71 |
| 9 | `O=C1[C@H]2CN(c3cnccn3)C[C@H]2CN1CC1CC1` | -2.535 | 25.31 | -2.017 | 6.543 |
| 10 | `Cc1cc(C(=O)N2CCc3ncnc(-c4cnn(C)c4)c3CC2)no1` | -1.724 | -8.548 | -13.32 | -1.273 |
| 11 | `O=C(c1ccco1)N1CCO[C@@H]2CN(c3ccccn3)CC[C@@H]2C1` | -1.762 | 0.05881 | 52.58 | 2.688 |
| 12 | `CCCNC(=O)CN1CCC(NCc2csc(C(C)C)n2)CC1` | -2.852 | -4.685 | -8.45 | -0.9122 |
| 13 | `COc1cc(N2C[C@H]3CN(CCN4CCCC4)C(=O)[C@H]3C2)ncn1` | 0.1079 | -2.028 | -10.17 | 4.633 |
| 14 | `CCN(C(=O)c1nc2c(s1)CCCN2S(C)(=O)=O)C(C)C` | - | 8.637 | -11.06 | -0.4366 |
| 15 | `CC(C)(C)c1cc(NC(=O)C2CCCO2)n(-c2ccccn2)n1` (configuration not stated) | 0.8189 | 1.566 | -26.42 | 5.655 |
| 16 | `Cc1ccc(CC2COc3ccccc3C2)c(N)n1` (configuration not stated) | 2.25 | 25.96 | -18.7 | 2.799 |
| 17 | `c1ccc(O[C@H]2COCCN(Cc3c[nH]c4ccccc34)C2)cc1` | 4.593 | 1.063 | -33.52 | 1.847 |
| 18 | `CC(=O)NC1CCN(c2nc(N(C)C)nc3c2CCN(C(C)=O)C3)CC1` | -5.211 | -23.28 | -38.48 | 6.884 |
| 19 | `COc1ccc(Cc2ncc3c(n2)CN(C(=O)CCO)C3)cc1` | 9.759 | 13.08 | 4.503 | -10.78 |
| 20 | `COc1ccc(CN2C[C@@H]3CCCO[C@@H]3[C@H](NS(C)(=O)=O)C2)cc1` | 2.623 | 7.184 | -14.95 | -2.136 |
| 21 | `O=C(c1ccncc1)N1CC2(CCNCC2)c2cc(Cl)ccc21` | -2.488 | 0.4268 | -24.59 | 10.39 |
| 22 | `Cc1cc(OC(F)F)c(C(=O)N2CCC(CN(C)C)CC2)s1` | -0.7698 | -4.396 | -5.478 | 5.246 |
| 23 | `CC(=O)N1CCCC2(CN(Cc3ccccc3C(F)(F)F)CCO2)C1` (configuration not stated) | 0.8137 | -4.092 | -19.56 | 3.598 |
| 24 | `c1cncc(N2CCCn3nnc(CN4CCCCC4)c3C2)c1` | - | -5.02 | 5.808 | 3.805 |
| 25 | `CCN1CCc2c(CNC(=O)c3nccn3C)cncc2C1` | -7.277 | -9.224 | 6.444 | 0.6564 |
| 26 | `Cc1ncsc1C(=O)N(C)Cc1cccc(Cl)c1` | 2.516 | 26.27 | 22.32 | 6.148 |
| 27 | `CN(Cc1ccco1)C(=O)c1ccc(=O)n(C)c1` | 1.332 | 11.22 | -1.677 | 6.779 |
| 28 | `CCc1ccccc1OCCNCCc1c[nH]cn1` | 2.854 | -6.385 | -23.24 | 0.7839 |
| 29 | `Cc1cc(=O)[nH]c(=O)n1COCc1ccccc1` | 4.341 | 5.623 | -3.532 | 5.389 |
| 30 | `O=C(Nc1ccccc1F)C1CN(C(=O)c2ccc3c(c2)OCO3)C1` | 1.112 | -9.316 | -15.45 | 5.777 |
| 31 | `O=C(Cn1cnnn1)NCC1(O)CCCc2ccccc21` (configuration not stated) | 2.982 | -11.22 | -15.38 | 1.361 |
| 32 | `CC(C)c1nnc2n1CC(CNCc1nc3ccccc3o1)CC2` (configuration not stated) | 1.577 | 2.788 | -16.81 | 6.631 |
| 33 | `Cc1nccn1C1CCCN(C(=O)CCCNc2ncccn2)C1` (configuration not stated) | -0.6152 | -1.105 | -15.26 | 0.06888 |
| 34 | `CN(CC(=O)N1CCCC1)C(=O)c1ccccc1Nc1ccccc1` | 8.017 | 2.587 | 9.473 | 2.899 |
| 35 | `CN1CCCCC1(C)C(=O)N1CCC(c2ccccn2)CC1` (configuration not stated) | 20.3 | -6.126 | -24.99 | -1.99 |

Some entries from above, unchanged:

For CCN1CCc2c(CNC(=O)c3nccn3C)cncc2C1 the result was MtTrpRS: -7.277%; ClpP1P2: -9.224%; Pks13 thioesterase: 6.444%; PfKRS1: 0.6564%.
For CN(Cc1ccco1)C(=O)c1ccc(=O)n(C)c1 the result was MtTrpRS: 1.332%; ClpP1P2: 11.22%; Pks13 thioesterase: -1.677%; PfKRS1: 6.779%.
For c1ccc(-c2nnc([C@H]3CCN(C4CCC4)C3)o2)cc1 the result was MtTrpRS: -1.442%; ClpP1P2: -11.05%; Pks13 thioesterase: 1.342%; PfKRS1: -0.7314%.
For CCc1ccccc1OCCNCCc1c[nH]cn1 the result was MtTrpRS: 2.854%; ClpP1P2: -6.385%; Pks13 thioesterase: -23.24%; PfKRS1: 0.7839%.